# Primary screen of a compound library

The chains behind the UniProt entries cited, without tags or fusion partners.
UniProt I6X8D2, whole entry: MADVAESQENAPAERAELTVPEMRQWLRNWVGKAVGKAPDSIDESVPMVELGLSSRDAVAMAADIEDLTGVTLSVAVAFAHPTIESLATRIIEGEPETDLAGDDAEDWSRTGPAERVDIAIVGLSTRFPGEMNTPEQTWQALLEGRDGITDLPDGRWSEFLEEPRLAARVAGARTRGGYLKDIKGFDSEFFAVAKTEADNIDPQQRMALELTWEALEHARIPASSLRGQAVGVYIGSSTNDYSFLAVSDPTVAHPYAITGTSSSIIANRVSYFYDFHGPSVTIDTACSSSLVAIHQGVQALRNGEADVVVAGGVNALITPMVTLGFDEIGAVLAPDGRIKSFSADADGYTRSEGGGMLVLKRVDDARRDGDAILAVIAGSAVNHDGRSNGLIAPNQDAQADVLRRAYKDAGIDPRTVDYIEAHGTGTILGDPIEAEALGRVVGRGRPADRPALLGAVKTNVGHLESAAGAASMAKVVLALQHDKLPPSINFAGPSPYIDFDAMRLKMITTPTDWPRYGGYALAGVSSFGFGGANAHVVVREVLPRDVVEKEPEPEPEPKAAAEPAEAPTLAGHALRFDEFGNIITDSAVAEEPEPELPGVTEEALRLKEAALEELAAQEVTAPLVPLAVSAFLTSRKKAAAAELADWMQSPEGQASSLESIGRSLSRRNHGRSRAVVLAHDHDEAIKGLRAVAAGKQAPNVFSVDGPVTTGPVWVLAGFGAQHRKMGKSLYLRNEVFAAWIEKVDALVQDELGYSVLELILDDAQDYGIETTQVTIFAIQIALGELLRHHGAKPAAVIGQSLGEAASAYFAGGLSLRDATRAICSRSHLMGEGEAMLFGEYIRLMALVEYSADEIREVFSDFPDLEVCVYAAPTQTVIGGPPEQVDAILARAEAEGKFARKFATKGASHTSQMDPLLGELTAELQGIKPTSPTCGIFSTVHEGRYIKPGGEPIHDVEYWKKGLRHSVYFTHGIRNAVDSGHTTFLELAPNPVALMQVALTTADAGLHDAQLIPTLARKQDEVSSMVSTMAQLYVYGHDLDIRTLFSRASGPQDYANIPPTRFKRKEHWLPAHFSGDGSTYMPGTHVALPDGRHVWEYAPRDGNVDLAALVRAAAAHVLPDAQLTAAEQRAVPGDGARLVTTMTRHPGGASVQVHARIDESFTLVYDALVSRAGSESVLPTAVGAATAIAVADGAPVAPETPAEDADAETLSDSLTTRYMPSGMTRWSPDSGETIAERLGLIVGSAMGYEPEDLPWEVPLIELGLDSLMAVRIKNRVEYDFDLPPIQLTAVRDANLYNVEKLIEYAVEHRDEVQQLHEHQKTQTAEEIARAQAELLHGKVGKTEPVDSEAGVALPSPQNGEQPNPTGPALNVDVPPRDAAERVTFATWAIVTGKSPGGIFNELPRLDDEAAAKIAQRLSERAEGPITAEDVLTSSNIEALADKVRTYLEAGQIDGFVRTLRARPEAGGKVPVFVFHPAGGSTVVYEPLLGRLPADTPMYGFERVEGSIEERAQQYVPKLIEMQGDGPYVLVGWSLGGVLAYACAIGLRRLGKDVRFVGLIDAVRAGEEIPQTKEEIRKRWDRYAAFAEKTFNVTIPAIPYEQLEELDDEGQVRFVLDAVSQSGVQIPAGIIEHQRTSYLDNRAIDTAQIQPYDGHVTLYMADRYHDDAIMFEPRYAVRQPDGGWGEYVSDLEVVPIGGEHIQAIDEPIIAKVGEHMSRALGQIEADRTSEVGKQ

Measurements from “University of Dundee, Small-Polar-MMV Screening Library” (2021), ChEMBL document CHEMBL3988442.

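Enzyme assay of the thioesterase domain of polyketide synthase 13; the read-out is not stated. Target: Polyketide synthase Pks13, Mycobacterium tuberculosis (UniProt I6X8D2). Tested at 30 µM. Higher reads as stronger inhibition (inferred from which compounds were picked for retests). Of about 67,000 compounds tested this way, about 300 (0.46%) reached 50% or more in at least one test.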

Values are the deposited “Percent Effect”, in %.
The controls that fix the scale are not given in the record; negative values are as filed.
This is an unselected part of the compounds tested.

{"compound": "CCc1nc(C(=O)N2CCOCC2CC(=O)c2ccccc2)c[nH]1", "stereo": "configuration not stated", "Percent Effect": 13.82}
{"compound": "COc1ccc(-c2cnc(N)nc2C2CCCNC2)cc1", "stereo": "configuration not stated", "Percent Effect": -3.321}
{"compound": "CCOCC(O)CN1CCN(C(=O)Cc2ccccc2Cl)CC1", "stereo": "configuration not stated", "Percent Effect": -1.147}
{"compound": "Cc1cnn(C2CCCN(C(=O)CN(C)c3cnccn3)C2)c1", "stereo": "configuration not stated", "Percent Effect": -7.219}
{"compound": "OC(CN1CCC(c2ccn[nH]2)CC1)c1cccc(C(F)(F)F)c1", "stereo": "configuration not stated", "Percent Effect": -11.05}
{"compound": "CC(C)S(=O)(=O)N1CCCC(c2nnc(Cn3ccnc3)n2C)C1", "stereo": "configuration not stated", "Percent Effect": -2.575}
{"compound": "O=C(NCC1(N2CCOCC2)CCSC1)Nc1ccc(F)cc1", "stereo": "configuration not stated", "Percent Effect": -5.208}
{"compound": "CN(C)c1cccc(C2CCCN2S(=O)(=O)c2cn(C)cn2)n1", "stereo": "configuration not stated", "Percent Effect": 6.469}
{"compound": "COc1ccc(OCc2nc(C(=O)N3CC(O)C3)co2)cc1", "Percent Effect": -12.57}
{"compound": "CC(C)c1nnc(CN2CCCC2C(=O)OCc2ccccc2)o1", "stereo": "configuration not stated", "Percent Effect": -37.33}
{"compound": "CCS(=O)(=O)N1CCc2onc(CNc3ncccn3)c2C1", "Percent Effect": -31.82}
{"compound": "CN1CCC(N(C)c2ccccc2CNCc2ccco2)CC1", "Percent Effect": -14.81}
{"compound": "Cc1oc(C)c(C(=O)Nc2ccccn2)c1C", "Percent Effect": 17.08}
{"compound": "CCC(C)(C)N(C)CCOc1cccc(S(C)(=O)=O)c1", "Percent Effect": -7.321}
{"compound": "CC[C@H](C)[C@H](NC(=O)c1ccc(-n2cnnn2)cc1)C(=O)OC", "Percent Effect": -14.49}
{"compound": "CC(C)N1C[C@@H](CO)[C@H](c2ccccc2)S1(=O)=O", "Percent Effect": 4.002}
{"compound": "CCN(CC)S(=O)(=O)c1cc(Br)ccc1OC", "Percent Effect": -20.98}
{"compound": "Cc1nnc(N2C[C@H](Oc3ccccn3)[C@H]3OCCC[C@H]32)s1", "Percent Effect": 19.72}
{"compound": "CCc1csc(CNC2CCN(c3ccc(C)cc3)CC2)n1", "Percent Effect": -11.24}
{"compound": "c1cc(-c2cnccn2)cc(-c2ccn(CCN3CCCC3)n2)c1", "Percent Effect": -8.299}
{"compound": "O=C(CSc1ccccc1)N1C[C@H]2CC[C@@H]1CN(Cc1ccncc1)C2", "Percent Effect": -2.838}
{"compound": "Cc1nccn1C1CCCN(C(=O)c2ccc3nncn3c2)C1", "stereo": "configuration not stated", "Percent Effect": -12.49}
{"compound": "Cc1ncc(CN2CCN(C(=O)C3CCC3)[C@@H]3CS(=O)(=O)C[C@@H]32)cn1", "Percent Effect": -10.75}
{"compound": "O=C(Cc1ccc(CO)cc1)N1CCN(c2ccccc2Cl)C(=O)C1", "Percent Effect": -18.97}
{"compound": "CC(C)(N)c1cn(C2CCN(C(=O)CCC3CCCCC3)CC2)nn1", "Percent Effect": -9.337}
{"compound": "CCN1Cc2ccccc2CC2(CCN(C(=O)N(C)C)CC2)C1=O", "Percent Effect": -13.96}
{"compound": "Cc1nc2c(c(C)c1CC(=O)NCc1cccs1)c(=O)[nH]n2C", "Percent Effect": -10.58}
{"compound": "CCn1c2c(ccc1=O)CC(NCc1cnn(C)c1)CC2", "stereo": "configuration not stated", "Percent Effect": -23.59}
{"compound": "CC(C)NC(=O)CCNC(=O)CCc1cc(Cl)cs1", "Percent Effect": -4.545}
{"compound": "COCCNC(=O)Cc1cnc(-n2cccc2)s1", "Percent Effect": -2.381}
{"compound": "NS(=O)(=O)c1cnn(-c2ccc(NC(=O)C3CCCCC3)cn2)c1", "Percent Effect": 25.57}
{"compound": "CCn1nnc2c1C(COC)CN(Cc1cccs1)C2", "stereo": "configuration not stated", "Percent Effect": -10.95}
{"compound": "COc1cn(CC(N)=O)c(CSc2nc(C)cc(C)n2)cc1=O", "Percent Effect": 43.42}
{"compound": "CC(=O)NCCc1ccc(S(=O)(=O)Nc2cc(F)ccc2C)s1", "Percent Effect": -32.04}
{"compound": "CO[C@H]1CN(S(=O)(=O)c2ccc(C)cc2)C[C@@]12CCCO2", "Percent Effect": -4.102}
{"compound": "COCCC1(CO)CCCN(C(=O)c2cc(C#N)c(=O)[nH]c2C)C1", "stereo": "configuration not stated", "Percent Effect": 9.722}
{"compound": "CNC(=O)C(NC(=O)CCc1cccc(OC2CCCC2)c1)C(C)C", "stereo": "configuration not stated", "Percent Effect": -14.43}
{"compound": "COCC(C)(C#N)NC(=O)c1cn(-c2cccc(Cl)c2F)nn1", "stereo": "configuration not stated", "Percent Effect": -10.4}
{"compound": "CCN(CC)c1ncnc2c1CCN(C(=O)Cc1ccccn1)CC2", "Percent Effect": -3.307}
{"compound": "NC(=O)C1CCN(c2ncc(-c3cnccn3)c([C@H]3CCCO3)n2)CC1", "Percent Effect": 7.976}

Some entries from above, unchanged:

COc1ccc(OCc2nc(C(=O)N3CC(O)C3)co2)cc1 read -12.57%.
COCCNC(=O)Cc1cnc(-n2cccc2)s1 read -2.381%.
Cc1cnn(C2CCCN(C(=O)CN(C)c3cnccn3)C2)c1 (configuration not stated) read -7.219%.
CC(C)(N)c1cn(C2CCN(C(=O)CCC3CCCCC3)CC2)nn1 read -9.337%.
O=C(CSc1ccccc1)N1C[C@H]2CC[C@@H]1CN(Cc1ccncc1)C2 read -2.838%.